Assay results from PMC6351035.
These are yes or no findings as the source states them, for the method shown. Binding seen in cells or lysates may run through a third protein.

Chains of the proteins cited; added tags and fusions are not shown. Residues count along the entry.
UniProt O95831, residues 103-613: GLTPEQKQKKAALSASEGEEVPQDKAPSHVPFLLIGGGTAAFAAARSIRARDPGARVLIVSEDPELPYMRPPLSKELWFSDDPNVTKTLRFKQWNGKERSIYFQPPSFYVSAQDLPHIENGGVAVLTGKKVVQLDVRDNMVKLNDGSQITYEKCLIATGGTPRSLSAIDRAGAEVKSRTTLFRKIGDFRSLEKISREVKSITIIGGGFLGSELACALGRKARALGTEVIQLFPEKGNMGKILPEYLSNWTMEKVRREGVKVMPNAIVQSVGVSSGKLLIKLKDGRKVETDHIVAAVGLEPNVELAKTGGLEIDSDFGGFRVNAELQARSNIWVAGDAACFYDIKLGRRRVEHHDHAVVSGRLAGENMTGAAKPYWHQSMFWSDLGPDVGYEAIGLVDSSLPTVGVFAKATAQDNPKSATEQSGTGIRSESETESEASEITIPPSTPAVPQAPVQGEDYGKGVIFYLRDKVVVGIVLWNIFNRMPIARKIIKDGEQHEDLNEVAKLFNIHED
UniProt P38647, residues 47-679: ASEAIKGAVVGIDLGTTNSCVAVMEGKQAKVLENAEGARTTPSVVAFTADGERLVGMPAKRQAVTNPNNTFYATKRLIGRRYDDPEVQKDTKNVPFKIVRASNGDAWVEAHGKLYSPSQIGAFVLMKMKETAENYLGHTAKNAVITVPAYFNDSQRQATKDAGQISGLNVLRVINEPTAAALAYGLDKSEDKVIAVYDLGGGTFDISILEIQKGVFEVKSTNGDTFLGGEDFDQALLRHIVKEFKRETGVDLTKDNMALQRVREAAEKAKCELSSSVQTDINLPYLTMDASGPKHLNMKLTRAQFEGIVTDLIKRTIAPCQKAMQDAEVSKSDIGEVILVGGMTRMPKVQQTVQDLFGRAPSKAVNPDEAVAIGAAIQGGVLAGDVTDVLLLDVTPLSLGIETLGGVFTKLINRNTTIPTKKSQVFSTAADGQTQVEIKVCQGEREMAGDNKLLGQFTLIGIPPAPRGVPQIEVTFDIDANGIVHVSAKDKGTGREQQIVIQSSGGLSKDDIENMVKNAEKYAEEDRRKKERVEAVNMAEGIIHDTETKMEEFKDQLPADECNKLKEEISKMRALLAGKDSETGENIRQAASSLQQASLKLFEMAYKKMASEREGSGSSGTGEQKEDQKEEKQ

Target: processed AIF (apoAIF, amino acids 103 to 613) with N-terminal hexahistidine tag (UniProt O95831)
Test: pull-down; His-tagged AIF fragments immobilized on magnetic beads, incubated with a fraction of solubilized OMM proteins containing mortalin; Western blot with anti-mortalin; only the target purified

mortalin, endogenous, in solubilized outer mitochondrial membrane proteins of mouse liver (from UniProt P38647 47-679)
binding: no binding
